Experimental data taken from paper PMC7190567.
Results are given in words; binding and its absence hold for the method and conditions named. Binding seen in cells or lysates may run through a third protein. A yes stands for co-enrichment or nearness to the bait. Other partners may have been found.

Amino acid sequences for entries named in this document (tags omitted). Residues count along the entry.
UniProt Q3UH66: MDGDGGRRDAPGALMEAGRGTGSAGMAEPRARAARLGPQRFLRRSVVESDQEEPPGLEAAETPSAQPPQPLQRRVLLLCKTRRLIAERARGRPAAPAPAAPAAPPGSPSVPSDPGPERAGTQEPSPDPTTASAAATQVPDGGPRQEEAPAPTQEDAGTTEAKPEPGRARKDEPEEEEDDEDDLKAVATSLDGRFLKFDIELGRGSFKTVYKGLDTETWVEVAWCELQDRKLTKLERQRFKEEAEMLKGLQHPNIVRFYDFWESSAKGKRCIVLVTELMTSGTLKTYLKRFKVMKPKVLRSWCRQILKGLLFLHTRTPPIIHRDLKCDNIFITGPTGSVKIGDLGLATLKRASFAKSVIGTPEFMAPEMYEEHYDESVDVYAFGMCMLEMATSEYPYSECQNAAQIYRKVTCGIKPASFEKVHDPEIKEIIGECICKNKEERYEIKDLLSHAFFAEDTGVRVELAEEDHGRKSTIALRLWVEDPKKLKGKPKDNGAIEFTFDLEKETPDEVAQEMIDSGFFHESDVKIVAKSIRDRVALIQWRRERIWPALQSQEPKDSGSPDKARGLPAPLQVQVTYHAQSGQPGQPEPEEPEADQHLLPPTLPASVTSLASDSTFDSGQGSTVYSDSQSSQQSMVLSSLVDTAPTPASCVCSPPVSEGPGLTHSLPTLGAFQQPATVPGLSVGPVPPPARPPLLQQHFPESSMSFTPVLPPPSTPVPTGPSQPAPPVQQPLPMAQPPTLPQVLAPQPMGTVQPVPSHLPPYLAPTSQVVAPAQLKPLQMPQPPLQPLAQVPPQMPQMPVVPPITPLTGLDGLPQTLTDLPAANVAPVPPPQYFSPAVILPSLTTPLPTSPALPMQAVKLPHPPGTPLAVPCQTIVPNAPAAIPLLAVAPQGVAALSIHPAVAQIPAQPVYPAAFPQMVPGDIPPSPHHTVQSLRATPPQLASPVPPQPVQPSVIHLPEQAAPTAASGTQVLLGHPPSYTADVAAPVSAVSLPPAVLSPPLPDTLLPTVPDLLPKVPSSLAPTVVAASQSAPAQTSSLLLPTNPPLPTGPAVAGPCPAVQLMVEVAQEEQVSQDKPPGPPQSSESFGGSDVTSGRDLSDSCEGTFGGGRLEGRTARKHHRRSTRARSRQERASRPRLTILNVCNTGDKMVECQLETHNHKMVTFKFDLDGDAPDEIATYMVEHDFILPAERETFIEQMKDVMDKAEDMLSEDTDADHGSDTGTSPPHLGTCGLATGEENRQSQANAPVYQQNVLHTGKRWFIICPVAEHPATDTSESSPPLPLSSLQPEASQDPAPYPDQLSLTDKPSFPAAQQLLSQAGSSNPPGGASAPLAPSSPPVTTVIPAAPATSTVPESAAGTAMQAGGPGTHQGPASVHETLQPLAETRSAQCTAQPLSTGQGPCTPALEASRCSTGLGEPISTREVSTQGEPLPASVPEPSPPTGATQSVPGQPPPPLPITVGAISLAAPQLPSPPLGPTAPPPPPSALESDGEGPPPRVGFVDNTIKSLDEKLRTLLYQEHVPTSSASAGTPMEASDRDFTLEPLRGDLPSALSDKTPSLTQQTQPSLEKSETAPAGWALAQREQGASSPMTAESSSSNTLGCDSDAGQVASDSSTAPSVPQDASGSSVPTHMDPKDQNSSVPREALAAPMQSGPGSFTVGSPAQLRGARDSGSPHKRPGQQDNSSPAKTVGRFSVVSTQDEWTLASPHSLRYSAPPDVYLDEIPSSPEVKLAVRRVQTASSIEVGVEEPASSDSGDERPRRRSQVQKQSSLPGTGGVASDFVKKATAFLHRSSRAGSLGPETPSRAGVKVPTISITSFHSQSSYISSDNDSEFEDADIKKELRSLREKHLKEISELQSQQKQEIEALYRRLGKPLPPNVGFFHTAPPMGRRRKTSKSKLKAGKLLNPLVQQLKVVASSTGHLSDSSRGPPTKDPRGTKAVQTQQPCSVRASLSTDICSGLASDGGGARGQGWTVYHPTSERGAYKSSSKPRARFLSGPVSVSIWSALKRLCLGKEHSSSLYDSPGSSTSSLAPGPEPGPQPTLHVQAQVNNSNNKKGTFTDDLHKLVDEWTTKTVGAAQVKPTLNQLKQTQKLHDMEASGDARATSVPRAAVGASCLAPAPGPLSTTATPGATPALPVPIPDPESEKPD
UniProt P97772, residues 21-1199: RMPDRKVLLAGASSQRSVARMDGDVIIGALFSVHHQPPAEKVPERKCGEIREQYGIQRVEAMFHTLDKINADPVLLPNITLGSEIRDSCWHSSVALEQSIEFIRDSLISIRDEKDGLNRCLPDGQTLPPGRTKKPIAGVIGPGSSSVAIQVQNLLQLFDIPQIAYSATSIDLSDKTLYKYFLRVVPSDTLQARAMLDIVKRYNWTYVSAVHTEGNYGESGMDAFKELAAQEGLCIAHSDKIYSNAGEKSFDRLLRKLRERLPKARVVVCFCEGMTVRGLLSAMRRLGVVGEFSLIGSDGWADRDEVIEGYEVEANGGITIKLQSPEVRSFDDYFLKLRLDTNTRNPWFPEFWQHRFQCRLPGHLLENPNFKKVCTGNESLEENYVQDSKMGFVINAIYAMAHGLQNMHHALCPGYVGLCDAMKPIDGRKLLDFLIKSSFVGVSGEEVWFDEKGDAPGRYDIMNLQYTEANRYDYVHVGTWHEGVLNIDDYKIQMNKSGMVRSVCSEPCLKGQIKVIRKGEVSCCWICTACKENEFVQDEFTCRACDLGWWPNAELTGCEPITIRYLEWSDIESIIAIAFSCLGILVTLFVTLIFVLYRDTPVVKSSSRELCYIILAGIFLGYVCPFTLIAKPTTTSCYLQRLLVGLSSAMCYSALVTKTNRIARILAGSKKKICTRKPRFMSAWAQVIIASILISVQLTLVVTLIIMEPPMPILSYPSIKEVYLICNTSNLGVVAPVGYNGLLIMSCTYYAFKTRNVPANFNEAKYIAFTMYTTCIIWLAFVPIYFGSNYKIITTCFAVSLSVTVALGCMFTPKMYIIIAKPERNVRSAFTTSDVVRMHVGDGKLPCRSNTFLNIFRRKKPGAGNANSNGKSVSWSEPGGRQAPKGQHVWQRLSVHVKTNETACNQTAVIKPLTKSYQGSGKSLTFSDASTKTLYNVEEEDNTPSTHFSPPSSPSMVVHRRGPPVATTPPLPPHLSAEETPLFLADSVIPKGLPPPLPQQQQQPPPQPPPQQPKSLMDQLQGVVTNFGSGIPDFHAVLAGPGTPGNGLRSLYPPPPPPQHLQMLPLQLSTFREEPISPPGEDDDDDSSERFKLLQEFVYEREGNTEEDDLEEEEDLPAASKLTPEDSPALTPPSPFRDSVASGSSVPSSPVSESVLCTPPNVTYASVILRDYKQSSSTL
UniProt Q8JZV9: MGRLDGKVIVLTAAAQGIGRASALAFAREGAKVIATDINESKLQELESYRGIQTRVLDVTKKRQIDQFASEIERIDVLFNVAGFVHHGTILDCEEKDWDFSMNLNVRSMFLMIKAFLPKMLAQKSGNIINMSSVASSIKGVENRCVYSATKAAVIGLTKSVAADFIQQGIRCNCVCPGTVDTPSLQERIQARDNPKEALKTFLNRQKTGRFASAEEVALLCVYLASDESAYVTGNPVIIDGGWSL
UniProt Q80U19: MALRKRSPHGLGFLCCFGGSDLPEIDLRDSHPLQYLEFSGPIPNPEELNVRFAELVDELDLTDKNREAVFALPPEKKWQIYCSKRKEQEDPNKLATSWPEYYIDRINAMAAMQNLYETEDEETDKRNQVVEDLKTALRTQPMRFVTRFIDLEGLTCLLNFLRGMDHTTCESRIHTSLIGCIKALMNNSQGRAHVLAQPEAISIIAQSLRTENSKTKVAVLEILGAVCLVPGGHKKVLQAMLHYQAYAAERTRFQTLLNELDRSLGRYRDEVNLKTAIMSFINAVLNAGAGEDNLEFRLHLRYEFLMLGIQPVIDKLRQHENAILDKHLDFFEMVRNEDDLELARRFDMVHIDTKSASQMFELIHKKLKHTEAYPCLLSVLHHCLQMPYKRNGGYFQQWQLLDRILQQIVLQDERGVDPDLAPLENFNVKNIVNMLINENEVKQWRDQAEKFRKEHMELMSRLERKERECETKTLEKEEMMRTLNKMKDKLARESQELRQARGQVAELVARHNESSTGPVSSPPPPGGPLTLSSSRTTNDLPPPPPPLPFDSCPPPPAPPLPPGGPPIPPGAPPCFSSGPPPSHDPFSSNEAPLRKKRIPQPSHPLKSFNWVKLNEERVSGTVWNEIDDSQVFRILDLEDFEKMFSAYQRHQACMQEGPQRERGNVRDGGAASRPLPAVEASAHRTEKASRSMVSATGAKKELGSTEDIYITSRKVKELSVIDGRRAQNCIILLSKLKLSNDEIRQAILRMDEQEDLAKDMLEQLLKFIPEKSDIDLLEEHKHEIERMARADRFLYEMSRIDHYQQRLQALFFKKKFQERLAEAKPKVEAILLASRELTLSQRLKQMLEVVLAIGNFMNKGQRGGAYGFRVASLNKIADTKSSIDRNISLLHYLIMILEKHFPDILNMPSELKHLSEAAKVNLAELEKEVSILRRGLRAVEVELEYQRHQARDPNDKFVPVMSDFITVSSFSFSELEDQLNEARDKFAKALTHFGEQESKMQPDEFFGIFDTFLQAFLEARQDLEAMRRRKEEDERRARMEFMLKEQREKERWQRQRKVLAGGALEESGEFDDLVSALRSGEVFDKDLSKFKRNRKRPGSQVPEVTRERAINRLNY
UniProt Q8BQ33: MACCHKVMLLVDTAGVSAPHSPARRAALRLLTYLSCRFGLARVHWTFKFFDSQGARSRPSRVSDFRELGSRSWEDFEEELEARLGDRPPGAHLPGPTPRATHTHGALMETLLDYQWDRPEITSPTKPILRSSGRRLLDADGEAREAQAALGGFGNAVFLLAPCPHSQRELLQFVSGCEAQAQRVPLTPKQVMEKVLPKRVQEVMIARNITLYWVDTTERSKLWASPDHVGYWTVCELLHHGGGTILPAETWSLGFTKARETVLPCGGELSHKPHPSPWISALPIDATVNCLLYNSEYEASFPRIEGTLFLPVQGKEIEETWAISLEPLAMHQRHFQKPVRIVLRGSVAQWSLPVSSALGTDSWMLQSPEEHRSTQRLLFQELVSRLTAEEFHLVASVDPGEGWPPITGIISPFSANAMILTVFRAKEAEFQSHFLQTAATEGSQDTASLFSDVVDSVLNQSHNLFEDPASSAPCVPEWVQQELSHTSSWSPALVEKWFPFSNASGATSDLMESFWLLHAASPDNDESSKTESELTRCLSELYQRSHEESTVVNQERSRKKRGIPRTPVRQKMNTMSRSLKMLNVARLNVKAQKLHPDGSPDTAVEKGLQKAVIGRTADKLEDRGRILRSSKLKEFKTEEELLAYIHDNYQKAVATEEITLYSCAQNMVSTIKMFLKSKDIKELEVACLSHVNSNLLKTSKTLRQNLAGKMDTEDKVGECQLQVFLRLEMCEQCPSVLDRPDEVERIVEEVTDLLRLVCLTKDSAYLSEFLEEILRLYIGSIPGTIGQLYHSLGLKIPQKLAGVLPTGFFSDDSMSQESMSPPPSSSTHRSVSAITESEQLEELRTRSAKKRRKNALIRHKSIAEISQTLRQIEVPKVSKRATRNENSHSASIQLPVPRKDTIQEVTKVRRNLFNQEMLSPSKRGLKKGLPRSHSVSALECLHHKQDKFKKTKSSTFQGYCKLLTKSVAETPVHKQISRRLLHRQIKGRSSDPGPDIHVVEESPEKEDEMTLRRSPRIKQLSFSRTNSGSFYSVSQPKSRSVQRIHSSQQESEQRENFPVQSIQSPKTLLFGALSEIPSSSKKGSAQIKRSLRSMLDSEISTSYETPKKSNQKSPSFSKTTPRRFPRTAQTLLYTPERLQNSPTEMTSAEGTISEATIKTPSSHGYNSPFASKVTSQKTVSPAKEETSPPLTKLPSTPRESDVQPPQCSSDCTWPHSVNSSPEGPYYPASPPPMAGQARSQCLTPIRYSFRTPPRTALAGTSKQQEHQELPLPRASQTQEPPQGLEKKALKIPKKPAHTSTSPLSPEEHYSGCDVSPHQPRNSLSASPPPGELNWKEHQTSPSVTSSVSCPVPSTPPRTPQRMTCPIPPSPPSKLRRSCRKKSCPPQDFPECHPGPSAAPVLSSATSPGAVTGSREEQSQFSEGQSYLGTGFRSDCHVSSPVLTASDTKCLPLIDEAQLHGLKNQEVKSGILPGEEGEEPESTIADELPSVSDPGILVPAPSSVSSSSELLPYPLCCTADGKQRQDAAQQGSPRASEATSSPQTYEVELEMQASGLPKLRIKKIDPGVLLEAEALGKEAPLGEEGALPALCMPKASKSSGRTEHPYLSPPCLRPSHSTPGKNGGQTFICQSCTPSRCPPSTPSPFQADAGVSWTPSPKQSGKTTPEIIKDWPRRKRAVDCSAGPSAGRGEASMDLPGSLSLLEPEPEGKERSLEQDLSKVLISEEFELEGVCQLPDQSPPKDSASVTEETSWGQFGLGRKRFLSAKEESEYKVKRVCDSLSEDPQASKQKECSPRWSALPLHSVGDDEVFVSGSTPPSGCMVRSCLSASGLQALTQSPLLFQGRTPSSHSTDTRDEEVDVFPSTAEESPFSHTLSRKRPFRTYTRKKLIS

The substances below were run against T1, Caveolin-1 (wild type) (dog) (UniProt P33724) (assay: affinity purification with mass spectrometry; CAV1 immunoprecipitated with polyclonal anti-CAV1 on Dynabeads from B16F10(CAV1-E-cadherin) cells; trypsin digest, nano-ESI-MS/MS on an LTQ ion trap, Mascot; only proteins unique to this sample listed).
T1 sequence: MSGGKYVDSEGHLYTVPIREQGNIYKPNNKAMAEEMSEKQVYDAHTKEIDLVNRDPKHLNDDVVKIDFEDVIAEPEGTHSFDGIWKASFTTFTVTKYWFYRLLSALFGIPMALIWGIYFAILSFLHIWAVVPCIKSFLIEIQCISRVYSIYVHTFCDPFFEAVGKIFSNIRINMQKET

Row | binding | Substance
1 | binds | Serine/threonine-protein phosphatase 4 regulatory subunit 3B (from UniProt Q922R5 1-820)
2 | binds | Multiple PDZ domain protein (from UniProt Q8VBX6 1-2055)
3 | binds | Citron Rho-interacting kinase (from UniProt P49025)
4 | binds | FAM129C, Phospholipid binding (mouse (endogenous in B16F10))
5 | binds | Hydrocephalus-inducing protein (from UniProt Q80W93 1-5154)
6 | binds | Smad1 (from UniProt P70340 1-465)
7 | binds | Centriolin (from UniProt A2AL36 1-2334)
8 | binds | Serine/threonine-protein kinase WNK2 (from UniProt Q3UH66 1-2149)
9 | binds | Metabotropic glutamate receptor 1 (from UniProt P97772 21-1199)
10 | binds | Diaphanous homolog 3 (from UniProt Q9Z207 1-1171)
11 | binds | BOD1L (from UniProt E9Q6J5 1-3032)
12 | binds | Dennd4a, C-myc promoter-binding protein (mouse (endogenous in B16F10))
13 | binds | Afadin (from UniProt Q9QZQ1 1-1820)
14 | binds | E3 Ubiquitin-protein ligase RNF213 (from UniProt E9Q555 1-5148)
15 | binds | Protocaherin-17 (mouse (endogenous in B16F10))
16 | binds | Multidomain presynaptic cytomatrix protein (from UniProt Q9QYX7 1-5068)
17 | binds | Chromodomain-helicase-DNA-binding protein 2 (from UniProt E9PZM4 1-1827)
18 | binds | Bdh2, 3-hydroxbutyrate dehydrogenase type 2 (from UniProt Q8JZV9 1-245)
19 | binds | PH-interacting protein (from UniProt Q8VDD9 1-1821)
20 | binds | Disheveled-associated activator of morphogenesis 2 (from UniProt Q80U19 1-1115)
21 | binds | Serine/arginine repetitive matrix protein 2 (from UniProt Q8BTI8 1-2703)
22 | binds | Protein Cyp2j 12 (mouse (endogenous in B16F10))
23 | binds | DIP2 disco-interacting protein 2 homolog C (mouse (endogenous in B16F10))
24 | binds | Fatty acid synthase (from UniProt P19096 1-2504)
25 | binds | TopBP1-interacting checkpoint and replication regulator (from UniProt Q8BQ33 1-1889)
26 | binds | Adenomatosis polyposis coli (from UniProt Q61315 1-2845)
27 | binds | Microtubule-actin cross-linking factor 1 (from UniProt Q9QXZ0 1-7354)
